Test results taken from US20250327050A1.
No constants are given. Whether binding was seen depends on the method and setting. In cells and extracts the contact can be indirect. Some binding calls cover weakened binding; strength is not graded here.

Sequences of proteins named here, by UniProt entry; tags and fusion partners are left off.
UniProt Q14004: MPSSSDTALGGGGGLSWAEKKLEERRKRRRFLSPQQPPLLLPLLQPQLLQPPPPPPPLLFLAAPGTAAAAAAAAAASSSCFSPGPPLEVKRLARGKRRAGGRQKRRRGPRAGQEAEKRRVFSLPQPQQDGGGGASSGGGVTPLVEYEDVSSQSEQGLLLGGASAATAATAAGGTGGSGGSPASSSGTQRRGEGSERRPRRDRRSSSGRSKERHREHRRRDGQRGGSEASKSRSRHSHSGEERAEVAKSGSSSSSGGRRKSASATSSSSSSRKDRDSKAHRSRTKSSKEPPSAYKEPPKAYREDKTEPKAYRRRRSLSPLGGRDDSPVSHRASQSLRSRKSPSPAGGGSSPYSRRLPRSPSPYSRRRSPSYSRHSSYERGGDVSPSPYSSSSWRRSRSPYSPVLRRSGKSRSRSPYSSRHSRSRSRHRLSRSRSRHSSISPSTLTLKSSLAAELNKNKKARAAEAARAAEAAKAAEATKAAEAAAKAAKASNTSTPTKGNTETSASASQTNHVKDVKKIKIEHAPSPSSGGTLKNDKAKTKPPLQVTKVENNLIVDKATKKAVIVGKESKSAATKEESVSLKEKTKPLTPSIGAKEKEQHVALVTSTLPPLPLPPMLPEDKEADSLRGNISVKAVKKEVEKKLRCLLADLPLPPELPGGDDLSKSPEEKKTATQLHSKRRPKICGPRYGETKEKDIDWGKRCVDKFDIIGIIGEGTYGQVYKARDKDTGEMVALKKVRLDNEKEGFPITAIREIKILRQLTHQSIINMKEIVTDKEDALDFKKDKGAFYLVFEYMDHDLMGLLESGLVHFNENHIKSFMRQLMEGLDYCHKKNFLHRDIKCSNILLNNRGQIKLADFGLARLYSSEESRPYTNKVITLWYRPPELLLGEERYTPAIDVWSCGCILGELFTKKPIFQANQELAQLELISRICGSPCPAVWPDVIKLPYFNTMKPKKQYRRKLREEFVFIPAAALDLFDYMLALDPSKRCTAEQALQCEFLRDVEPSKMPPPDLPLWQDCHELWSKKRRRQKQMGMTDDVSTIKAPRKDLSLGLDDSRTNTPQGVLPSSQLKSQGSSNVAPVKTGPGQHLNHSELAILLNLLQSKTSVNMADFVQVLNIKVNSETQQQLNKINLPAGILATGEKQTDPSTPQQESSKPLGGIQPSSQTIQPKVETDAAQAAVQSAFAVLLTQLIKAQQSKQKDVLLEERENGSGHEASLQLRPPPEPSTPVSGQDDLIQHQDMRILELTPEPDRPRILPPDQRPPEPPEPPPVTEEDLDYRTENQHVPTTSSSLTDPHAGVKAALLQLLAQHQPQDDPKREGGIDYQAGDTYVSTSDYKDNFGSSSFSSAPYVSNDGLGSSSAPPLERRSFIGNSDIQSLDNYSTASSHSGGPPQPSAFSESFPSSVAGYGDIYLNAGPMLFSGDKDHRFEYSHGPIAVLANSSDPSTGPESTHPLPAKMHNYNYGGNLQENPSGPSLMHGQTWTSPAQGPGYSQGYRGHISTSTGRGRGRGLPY

Key:
[1] = molecular target: T1, ZC3H14 (endogenous, found in the CDK13 IP-MS from human melanoma cells) (human) (UniProt Q6PJT7); assay: IP-MS of CDK13 from human melanoma cells
T1 sequence: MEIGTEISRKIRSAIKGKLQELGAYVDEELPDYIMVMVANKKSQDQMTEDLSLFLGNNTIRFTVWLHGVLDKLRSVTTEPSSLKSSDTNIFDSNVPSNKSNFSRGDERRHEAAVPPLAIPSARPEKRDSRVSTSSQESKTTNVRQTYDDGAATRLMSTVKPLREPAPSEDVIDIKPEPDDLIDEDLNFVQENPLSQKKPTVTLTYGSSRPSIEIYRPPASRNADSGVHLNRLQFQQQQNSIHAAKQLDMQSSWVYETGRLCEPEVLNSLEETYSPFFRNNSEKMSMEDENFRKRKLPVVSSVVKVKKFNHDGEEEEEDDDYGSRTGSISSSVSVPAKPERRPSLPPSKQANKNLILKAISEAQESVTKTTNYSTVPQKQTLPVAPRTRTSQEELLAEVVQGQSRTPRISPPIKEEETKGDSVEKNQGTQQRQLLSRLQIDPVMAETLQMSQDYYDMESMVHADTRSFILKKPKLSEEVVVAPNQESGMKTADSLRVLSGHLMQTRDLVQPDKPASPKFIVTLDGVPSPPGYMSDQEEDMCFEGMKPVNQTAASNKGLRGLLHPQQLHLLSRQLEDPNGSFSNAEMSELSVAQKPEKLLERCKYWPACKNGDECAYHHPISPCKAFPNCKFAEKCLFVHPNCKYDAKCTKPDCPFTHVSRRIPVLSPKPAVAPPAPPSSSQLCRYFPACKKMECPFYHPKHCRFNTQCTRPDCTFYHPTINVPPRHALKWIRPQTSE

PABPN1 (human) = molecular target: T2, PABPN1 (human) (UniProt Q86U42); assay: IP-MS of CDK13 from human melanoma cells
T2 sequence (looked up): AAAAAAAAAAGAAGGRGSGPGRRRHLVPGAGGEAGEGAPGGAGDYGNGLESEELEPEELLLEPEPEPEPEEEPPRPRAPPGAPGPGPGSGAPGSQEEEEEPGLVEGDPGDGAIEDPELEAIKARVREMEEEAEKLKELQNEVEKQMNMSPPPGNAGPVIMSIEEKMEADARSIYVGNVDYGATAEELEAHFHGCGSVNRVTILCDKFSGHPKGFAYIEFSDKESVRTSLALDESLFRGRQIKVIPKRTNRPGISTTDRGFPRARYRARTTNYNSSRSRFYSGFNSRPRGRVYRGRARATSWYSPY

[2] = molecular target: T1, ZC3H14 (endogenous, found in the CDK13 IP-MS from human melanoma cells) (human); assay: IP-MS of CDK13^WT from human melanoma cells

Measured: binding

CDK13^WT (bait of the CDK13 IP-MS) (from UniProt Q14004 1-1512) (enzyme)
binds: [1] | PABPN1 (human) | [2]
